Test results reported in PMC2833144.

Tests used:
Test in all cases: far-Western, overlay or dot blot; ligand affinity blot: purified GST fusion proteins separated by 10% Tris/Tricine SDS-PAGE, blotted to nitrocellulose; membranes incubated with non-immune animal sera; detected with a polyclonal anti-CFH antibody; only the target purified
[1] = target: GST fusion of BGA66 of B. garinii ST4 PBi (B. garinii ST4 PBi)
[2] = target: GST fusion of BGA67 of B. garinii ST4 PBi (B. garinii ST4 PBi)
[3] = target: GST fusion of BGA68 of B. garinii ST4 PBi (B. garinii ST4 PBi)
[4] = target: GST fusion of BGA71 of B. garinii ST4 PBi (B. garinii ST4 PBi)

Measured: binding

B1: bovine CFH (protein, UniProt Q28085 19-1236)
chain: EDCKEPPPRKETEILSGSWTEQTYQEGTQATYKCRPGYRTLGSIVMMCRGGKWVSLHPSRICRKKPCAHPGDTPFGSFHLAEGTQFEYGAKVVYTCDEGYQMVGEMNFRECDTNGWTNDIPICEVVKCLPVTEPENGKIFSDALEPDQEYTYGQVVQFECNSGYMLDGPKQIHCSAGGVWSAETPKCVEIFCKTPVILNGQAVLPKATYKANERVQYRCAAGFEYGQRGDTICTKSGWTPAPTCIEITCDPPRIPNGVYRPELSKYRGQDKITYECKKGFFPEIRGTDATCTRDGWVPVPRCAWKPCSYPVIKHGRLYYSYRGYFPARVNQQFVYSCDHHFVPPSQRSWDHLTCTAEGWSPEEPCLRQCIFNYLENGHTPYREEKYLQGETVRVRCYEGYSLQNDQNTMTCTESGWSPPPRCIRVKTCSKSNIRIENGFLSESTFTYPLNKQTEYKCKPGYVTADGKTSGLITCLKNGWSAQPVCIKSCDRPVFEKARVKSDGTWFRLNDRLDYECVDGYENRDGRTTGSIVCGQDGWSDKAACYERECSIPEMDPYLNAYPRKETYKVGDVLKFSCSQGRIMVGADSVQCYHFGWSPKLPTCKVKKVKSCALPPELPNGKRKEIHKEEYAHNEVVEYACNPRFLMKGSHKIQCVDGEWTALPVCIEEERTCGNIPDLDHGDVKPSVPPYHHGDSVEFSCREAFTMIGPRFITCISGEWTQPPQCIATDELRKCKGSTLFPPEGRQAHKIEYDHNTNKSYQCRGKSEHKHSICINGEWDPKVDCNEEAKIQLCPPPPQVPNACDMTTTVNYQDGEKISILCKENYLIQDAEEIVCKDGRWQSIPRCIEKIGCSQPPQIDHGTISSSSSAEERREIHEQRLYAHGTKLSYTCEEGFEISENNVIICHMGKWSSPPQCVGLPCGLPPYVQNGVVSHKKDRYQYGEEVTYDCDEGFGTDGPASIRCLGGEWSRPQDCISTNCVNLPTFEDAVLTDREKDFYRSGEQVAFKCLSYYQLDGSNTIQCIKSKWIGRPACRDVSCGNPPQVENAIIHNQKSKYQSEERARYECIGNYDLFGEMEVVCLNGTWTEPPQCKDSQGKCGPPPPIDNGDITSLLQSVYPPGMIVEYRCQAYYELRGNKNVVCRNGEWSQLPKCLEACVISEETMRKHHIQLRWKHDKKIYSKTEDTIEFMCQHGYRQLTPKHTFRATCREGKVVYPRCG
binds: all assays above

No constants are given. Whether binding was seen depends on the method and setting. A result given as binding can be weak or reduced; the word gives no strength.
